No constants are given. Whether binding was seen depends on the method and setting. Binding seen in cells or lysates may run through a third protein. Some entries that bind do so weakly or less than the wild type. Tags and fused reporters may be left off the sequences shown.
Biological target: T1, Pcm1-myc (S. pombe) (UniProt O74880)
T1 sequence: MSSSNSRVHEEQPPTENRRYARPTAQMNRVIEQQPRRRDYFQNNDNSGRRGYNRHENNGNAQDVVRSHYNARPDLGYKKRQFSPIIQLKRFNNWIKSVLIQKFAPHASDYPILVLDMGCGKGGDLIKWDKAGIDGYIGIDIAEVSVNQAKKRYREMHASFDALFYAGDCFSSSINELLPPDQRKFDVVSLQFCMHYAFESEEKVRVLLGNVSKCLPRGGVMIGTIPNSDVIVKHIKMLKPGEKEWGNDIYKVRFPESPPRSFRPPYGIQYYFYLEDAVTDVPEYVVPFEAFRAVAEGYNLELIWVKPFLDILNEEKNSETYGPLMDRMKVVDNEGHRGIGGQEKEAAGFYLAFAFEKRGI
Assay: co-IP; lysates of S. pombe pcm1-myc (CS145) or cdk9^as pcm1-myc (CS165) strains incubated with anti-myc-bound protein G beads or protein G alone (mock); immunoprecipitates analysed by immunoblotting and for Rpb1-CTD kinase activity

- binding: binds
B1: Cdk9 (enzyme, UniProt Q96WV9 1-591)
chain: MKRSSSVSVEDEKSARRKLDVVPKLHFVGCSHLTDYHLMEKLGEGTFGEVYKSQRRKDGKVYALKRILMHTEKEGFPITAIREIKILKSIKHENIIPLSDMTVVRADKKHRRRGSIYMVTPYMDHDLSGLLENPSVKFTEPQIKCYMKQLFAGTKYLHDQLILHRDLKAANLLIDNHGILKIADFGLARVITEESYANKNPGLPPPNRREYTGCVVTRWYRSPELLLGERRYTTAIDMWSVGCIMAEMYKGRPILQGSSDLDQLDKIFRLCGSPTQATMPNWEKLPGCEGVRSFPSHPRTLETAFFTFGKEMTSLCGAILTLNPDERLSASMALEHEYFTTPPYPANPSELQSYSASHEYDKRRKREQRDANSHAFEQTANGKRQFRFMTRGPSDPWYGIRRPNYNSQPQYQRGSYNREGGNMDRSRNVNYQPKRQQNFKPLTSDLPQKNSEFSETNAMNQTSNHSHADGQRYYRPEQDRSQRLRNPSDYGRQGRQSSQSQQPAWNVSSRYQNNSKVQTTSRASENADTNKTQHNIKYIDSYVPEYSIARQSANQKTNEQHPSSTSLHQQSTSDLKSPSFHENSNVDDTPK

From article PMC3410854
